Source: patent EP4725969A1 (Latticon (Suzhou) Biopharmaceuticals Co., Ltd., dated 2024)
Substitutions are numbered along the chain they refer to. These are yes or no findings as the source states them, for the method shown. Some results given as binding are weak or reduced against the parent protein; the word gives no strength.

B1: mAb2128 (antibody, V domains shown)
VH: EVQLQQSGPELVKPGASVKIPCKASGYTFTDYNMDWVKQSHGKSLEWIGDINPNNGGTIYNQKFKGKATLTVDKSSSTAYMELRSLTSEDTAVYYCARYGSGYGGFAYWGQGTLVTVSS
VL: DIVLTQSPTTMAASPGEKITITCSASSSISSNYLHWYQQKPGFSPKLLIYRTSNLASGVPARFSGSGSGTSYSLTIGTMEAEDVATYYCQQGSSIPRTFGGGTKLEIK
notes: Chimeric human IgG1/Cκ
B2: Hu2117-HK203 (Fc fusion)
scFv: EVQLVESGGGLVQPGGSLRLSCAASGFTYSSYGMSWVRQAPGKGLEWVASISGGGNYAKYVDSVKGRFTISRDNSKNTLYLQMNSLRAEDTAVYYCARDYVGFFDVWGQGTLVTVSSGGGGSGGGGSGGGGSDIQMTQSPSSLSASVGDRVTITCRSSQSLVHSNRNTYLHWYQQKPGKAPKLLIYKVSNRFSGVPSRFSGSGSGTDFTLTISSLQPEDFATYFCSQSTHVPYTFGQGTKVEIK
notes: scFv-hIgG1 Fc; not shown: human IgG1 Fc
B3: Hu2117-HK304 (Fc fusion)
scFv: B2 scFv with D62P
notes: as for B2
B4: Hu2117HK-Mu02 (Fc fusion)
scFv: B2 scFv with N56S, A58T, V61P, V101A, R166G, T222V
notes: as for B2
B5: Hu2117-HK310 (Fc fusion)
scFv: B2 scFv with S63N
notes: as for B2
B6: Hu2117-HK309 (Fc fusion)
scFv: B2 scFv with S63K
notes: as for B2
B7: Hu2117HK-Mu04 (Fc fusion)
scFv: B2 scFv with N56S, A58T, V61P, V101A, M136L, R166G
notes: as for B2
B8: Hu2117-HK303 (Fc fusion)
scFv: B2 scFv with D62E
notes: as for B2
B9: Hu2117HK-Mu01 (Fc fusion)
scFv: B2 scFv with N56S, A58T, V61P, V101A, R166G, A180S
notes: as for B2
B10: Hu2117HK-Mu03 (Fc fusion)
scFv: B2 scFv with N56S, A58T, V61P, V101A, I134V, R166G
notes: as for B2
B11: Hu2117-HK306 (Fc fusion, not shown: a dimerising Fc or GST)
scFv: B2 scFv with D62R
B12: Hu2117-HK301 (Fc fusion, not shown: a dimerising Fc or GST)
scFv: B2 scFv with D62G
B13: Hu2117-HK305 (Fc fusion, not shown: a dimerising Fc or GST)
scFv: B2 scFv with D62Q
B14: Hu2117-HK202 (Fc fusion, not shown: a dimerising Fc or GST)
scFv: B2 scFv with N56S, A58T, V61P

The binders below were run against recombinant human HER2 extracellular domain protein (human) (UniProt P04626) (assay: ELISA, coated HER2 ECD).

Row | binding | Binder
1 | binds | B1

These binders were tested against T1, human HER2 expressed on tumor cells (human, UniProt P04626 23-1255) (assay: flow cytometry, BT474 cells).
T1 construct: whole, on cells; Cell line is named in each row's assay

Row | binding | Binder
2 | binds | B2
3 | binds | B3
4 | binds | B4
5 | binds | B5
6 | binds | B6
7 | binds | B7
8 | binds | B8
9 | binds | B9
10 | binds | B10

These binders were tested against T1, human HER2 expressed on tumor cells (assay: flow cytometry, RT-112 cells).

Row | binding | Binder
11 | binds | B2
12 | binds | B3
13 | binds | B4
14 | binds | B5
15 | binds | B6
16 | binds | B7
17 | binds | B8
18 | binds | B9
19 | binds | B10

Each binder was assayed against T1, human HER2 expressed on tumor cells (assay: flow cytometry, RT-112 cells, 10 µg/mL).

Row | binding | Binder
20 | binds | B2
21 | binds | B11
22 | binds | B12
23 | binds | B13
24 | binds | B14
25 | binds | B3
26 | binds | B5
27 | binds | B6
28 | binds | B8

Each binder was assayed against T1, human HER2 expressed on tumor cells (assay: flow cytometry, BT474 cells, 10 µg/mL).

Row | binding | Binder
29 | binds | B2
30 | binds | B14
